Assay results published in paper PMC8744235 (Journal of Biomedical Science, 2022).

What was measured:
[1] = test system: [^3H]VPA uptake in WT (hSOD1^WT) NSC-34 cell line; assay: Inhibition of [3H]VPA uptake by substrates/inhibitors/drugs, WT cell line; format: cell-based; conditions: 1 mM
[2] = test system: [^3H]VPA uptake in MT (hSOD1^G93A) NSC-34 cell line; conditions: 1 mM

NS(=O)(=O)c1cc(C(=O)O)c(NCc2ccco2)cc1Cl [Furosemide, furosemide]
depletion in VPA transport [1]: approximately 40% | depletion in VPA transport [2]: approximately 40%
